Out of some 390,000 compounds screened, about 4,000 (1%) were called active. Inconclusive means that the source gave no clear call. Such entries were picked first, then a sample of the others. The call rests on the fitted dose curve; in most records, active means well fitted inhibition curve with a large enough effect; inconclusive means small, poorly fitted or top-dose-only effect, or another doubt; inactive means no such curve, though single readings can be large or run the other way. A potency beside an inconclusive call is a rough fit, not a confirmed value.
Biological target: DNA polymerase iota (Homo sapiens) (UniProt Q9UNA4)
Experiment: qHTS for Inhibitors of Polymerase Iota
Details: Pol iota fluorescent replication assay, 10 min; series mostly up to 115 µM; activity, negative = inhibition: at the top concentration
Method in brief: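 Pol iota at 10 nM preincubated 15 min with compounds at room temperature; reaction started with fluorescent substrate, 50 nM final. Fluorescence read kinetically at 0 and 10 min; buffer-only wells as negative control.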
Potency means the concentration at half of the fitted maximal effect.

The chains behind the UniProt entries cited, without tags or fusion partners. Where a name states a change or a piece, a line headed by the entry shows the natural chain unless it says otherwise.
UniProt Q9UNA4: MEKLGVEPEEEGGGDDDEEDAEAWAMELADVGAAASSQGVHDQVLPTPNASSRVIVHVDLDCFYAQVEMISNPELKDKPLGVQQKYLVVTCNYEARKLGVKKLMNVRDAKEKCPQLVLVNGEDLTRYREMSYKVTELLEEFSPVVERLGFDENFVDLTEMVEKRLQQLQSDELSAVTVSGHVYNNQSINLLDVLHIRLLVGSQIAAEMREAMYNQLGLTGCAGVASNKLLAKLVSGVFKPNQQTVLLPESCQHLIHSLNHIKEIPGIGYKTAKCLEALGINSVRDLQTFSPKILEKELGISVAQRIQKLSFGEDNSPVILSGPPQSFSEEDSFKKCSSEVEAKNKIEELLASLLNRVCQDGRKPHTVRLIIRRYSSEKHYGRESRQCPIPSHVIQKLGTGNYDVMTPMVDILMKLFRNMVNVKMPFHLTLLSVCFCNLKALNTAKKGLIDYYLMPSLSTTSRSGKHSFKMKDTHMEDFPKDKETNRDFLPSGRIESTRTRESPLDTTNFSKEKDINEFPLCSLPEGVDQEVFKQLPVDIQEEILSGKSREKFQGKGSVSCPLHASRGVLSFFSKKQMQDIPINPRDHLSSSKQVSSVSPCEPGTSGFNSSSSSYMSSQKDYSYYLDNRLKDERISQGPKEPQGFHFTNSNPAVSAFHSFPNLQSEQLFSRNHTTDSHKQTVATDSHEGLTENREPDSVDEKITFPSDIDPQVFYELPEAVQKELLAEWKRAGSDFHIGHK

| SMILES | Potency | activity, negative = inhibition |
| --- | --- | --- |
| O=C(NCC1CC1)c1onc(CSc2nc3ccccc3[nH]2)c1C(=O)NCC1CC1 | inconclusive: 14.1 µM [inhibitor, full curve, poor fit] |  |
| Cc1ccc(NC(=O)C(=O)c2cc(C)n(-c3ccc(F)cc3)c2C)cc1C | inconclusive: 79.4 µM [inhibitor, single point] |  |
| CCCNC(=O)CSc1nc2[nH]ncc2c(=O)[nH]1 | inconclusive: 100 µM [inhibitor, partial curve, poor fit] |  |
| CS(=O)(=O)c1ccccc1C(=O)N1CCN(Cc2ccccc2)CC1 | inconclusive: 89.1 µM [inhibitor, single point] |  |
| O=C(NNS(=O)(=O)c1ccccc1F)c1cccc(S(=O)(=O)N2CCOCC2)c1 | inconclusive: 89.1 µM [inhibitor, single point] |  |
| Cc1cccn2c(=O)c(C(=O)NCCc3ccccc3)c(O)nc12 |  | inactive: -14.4% |
| Cc1cccc(-c2noc(CSc3nc(-c4ccc(F)cc4)cc(=O)[nH]3)n2)c1 | inconclusive: 89.1 µM [inhibitor, partial curve, poor fit] |  |
| CC(C)C[C@H](NC(=O)C1CC(=O)N(c2ccc3c(c2)OCO3)C1)C(=O)NC1CCCCC1 (stereo partly drawn) | inconclusive: 79.4 µM [inhibitor, partial curve, poor fit] |  |
| Cc1ccc(S(=O)(=O)CCC(=O)c2cccc([N+](=O)[O-])c2)cc1 |  | inactive: 84.1% |
| COCCCN(CC(=O)Nc1ccc(N2CCOCC2)cc1)S(=O)(=O)c1ccc(Cl)cc1 | inconclusive: 89.1 µM [inhibitor, partial curve, poor fit] |  |
| COCCn1nnnc1C(c1ccccc1)N1CCN(c2ccccc2)CC1 (stereo not drawn) | inconclusive: 5.62 µM [inhibitor, partial curve, poor fit] |  |
| CCN1CCN(C(c2cc(OC)ccc2OC)c2nnnn2Cc2ccccc2)CC1 (stereo not drawn) | inconclusive: 2 µM [inhibitor, full curve, poor fit] |  |
| Cc1c(OC(C(=O)O)c2ccccc2)ccc2c3c(c(=O)oc12)CCC3 (stereo not drawn) | inconclusive: 79.4 µM [inhibitor, single point] |  |
| COc1ccc(N2Cc3cccc(C(=O)Nc4ccc(F)cc4)c3C2=O)cc1 | inconclusive: 89.1 µM [inhibitor, single point] |  |
| CC(=O)Nc1ccc(-c2csc(NC(=O)C3CSC4(C)CCC(=O)N34)n2)cc1 (stereo not drawn) | inconclusive: 25.1 µM [inhibitor, partial curve, poor fit] |  |
| CN(CCOC(=O)c1ccc2c(c1)OCCO2)Cc1ccccc1 | inconclusive: 35.5 µM [inhibitor, partial curve, poor fit] |  |
| CS(=O)(=O)N1CCC(CO)(Cc2ccccc2C(F)(F)F)CC1 | inconclusive: 89.1 µM [inhibitor, single point] |  |
| CN(C(=O)c1ccc(NC(=O)Cc2ccc(NC(=O)C3CCN(S(=O)(=O)c4cccc([N+](=O)[O-])c4)CC3)cc2)cc1)C1CCCC1 | inconclusive: 25.1 µM [inhibitor, single point] |  |
| NS(=O)(=O)c1ccc(CCNC(=O)CCc2nc3sc4c(c3c(=O)[nH]2)CCCC4)cc1 | inconclusive: 20 µM [inhibitor, full curve, poor fit] |  |

| SMILES | Potency | activity, negative = inhibition |
| --- | --- | --- |
| O=C1c2cccc3cc([N+](=O)[O-])cc(c23)C(=O)N1/N=C/c1ccc(O)cc1O | inconclusive: 12.6 µM [inhibitor, full curve, poor fit] |  |
| C/C(=N\Nc1ccc(F)cc1)c1ccc(N2CCOCC2)c(F)c1 | inconclusive: 14.1 µM [inhibitor, partial curve, poor fit] |  |
| CC[N+](C)(C(=O)O)/C(=C\c1ccccc1)c1ccnc2ccccc12 (stereo not drawn) |  | inactive: -2.02% |
| CCCc1ccc(C(C)NC(=S)NCc2ccc(F)cc2)cc1 (stereo not drawn) | inconclusive: 79.4 µM [inhibitor, single point] |  |
| CC1(C)Cc2c(c(-c3ccco3)[nH]c(=O)c2C#N)CS1 | active: 28.2 µM |  |
| O=C(CCN1C(=O)S/C(=C\c2ccc(F)cc2)C1=O)Nc1ccc(C(=O)O)c(O)c1 | inconclusive: 50.1 µM [inhibitor, partial curve, poor fit] |  |
| O=C1C=C(c2ccc(C(=O)O)c(Cl)c2)C[C@@H](c2ccc3c(c2)OCO3)C1 | inconclusive: 14.1 µM [inhibitor, full curve, poor fit] |  |
| Cc1ccccc1NC(=O)CN1C(=O)S/C(=C\c2ccc(-c3cc(C(=O)O)ccc3C)o2)C1=O | active: 8.91 µM |  |
| Cc1ccc(/C=N/Nc2ccc(C(=O)O)cc2)s1 | inconclusive: 14.1 µM [inhibitor, partial curve, poor fit] |  |
| COc1cc(C=NNC(=O)c2ccc(NS(=O)(=O)c3cccs3)cc2)cc(Br)c1O | inconclusive: 14.1 µM [inhibitor, partial curve, poor fit] |  |
| CCc1ccc(NC(=O)c2ccc(NC3=NC4CS(=O)(=O)CC4S3)cc2)cc1 (stereo not drawn) | inconclusive: 89.1 µM [inhibitor, single point] |  |
| COc1ccc2[nH]c3c(NCCC4=CCCCC4)ncnc3c2c1 |  | inactive: -2.11% |
| Cc1cc(OCC(O)CN2CCc3ccccc3C2)cc(C(C)C)c1 (stereo not drawn) | inconclusive: 79.4 µM [inhibitor, single point] |  |
| Cc1ccccc1CCNC(=O)c1cc2cc(S(=O)(=O)N3CCCCC3)ccc2n1C |  | inactive: 4.76% |
| CN(CCOc1ccc(Cl)cc1)CC(=O)Nc1ccc(OC(F)(F)F)cc1 | inconclusive: 7.94 µM [inhibitor, partial curve, poor fit] |  |
| CC1=C(C(=O)Nc2ccccc2)C(c2cccs2)C(C#N)=C(SCC#N)N1 (stereo not drawn) | inconclusive: 28.2 µM [inhibitor, single point] |  |
| CCn1c(=N)c(C(=O)NC2CCCCC2)cc2c(=O)n3cc(C)ccc3nc21 |  | inactive: 4.75% |
| CCCCC1=CC2=C(c3ccco3)C(=O)C(C)(OC(=O)c3ccc(OC)cc3)C(=O)C2=CN1CCCCO (stereo not drawn) | inconclusive: 14.1 µM [inhibitor, partial curve, poor fit] |  |
| COc1ccc(-c2cc3c(=O)n(CC(=O)Nc4ccc(Cl)cc4)ncn3n2)cc1 |  | inactive: 21.5% |

A draw from above in order of length of the SMILES, high to low:

| SMILES | Potency | activity, negative = inhibition |
| --- | --- | --- |
| CCCCC1=CC2=C(c3ccco3)C(=O)C(C)(OC(=O)c3ccc(OC)cc3)C(=O)C2=CN1CCCCO (stereo not drawn) | inconclusive: 14.1 µM [inhibitor, partial curve, poor fit] |  |
| CC1=C(C(=O)Nc2ccccc2)C(c2cccs2)C(C#N)=C(SCC#N)N1 (stereo not drawn) | inconclusive: 28.2 µM [inhibitor, single point] |  |
| CCCNC(=O)CSc1nc2[nH]ncc2c(=O)[nH]1 | inconclusive: 100 µM [inhibitor, partial curve, poor fit] |  |
